Results deposited as PubChem BioAssay AID1159578 (Peter MacCallum Cancer Centre, 2015).

Screen: 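siRNA pools altering how lymphatic endothelial cells close a scratch wound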 (primary screen)
Cell system: human lymphatic endothelial cells
Reagent: siRNA pool against human genes, 40 nM
Timing: 48 h after transfection
Measured: 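Cells stained with dye and imaged after a scratch; covered wound area and nuclei counted, duplicates averaged, migration set against mock wells and turned into a robust z-score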
Direction: migration robust z-score: higher = faster migration into the scratch; migration relative to mock: higher = more scratch area covered than mock; nuclei per well: higher = more cells in the well
Call rule: 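Migration changed when robust z exceeds 2 or falls below -2 and mean nuclei number is at least 3300; otherwise not called changed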
Calls: active = migration changed; inactive = no migration change, or too few cells
Here is an unselected part of about 18,000 reagents. Of all reagents, about 1,030 (5.7%) got an active call. 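Inactive calls also include pools with fewer than 3300 nuclei, whose migration was not assessed.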 Raw values vary from plate to plate and are shown uncorrected. The numbers tell different reagents against one gene apart. Reagent sequences are not shown.

no.	Target gene	reagent no.	migration robust z-score	migration class with cell-count check	migration relative to mock	nuclei per well, duplicate mean	Call
1	FHOD1	1	-0.48	migration z between -2 and 2; enough cells	0.76	5788	inactive
2	DEFB110	1	1.49	migration z between -2 and 2; enough cells	1.27	5986	inactive
3	DEFB110	2	0.21	migration z between -2 and 2; enough cells	0.94	5638	inactive
4	MARK3	1	-4.67	under 3300 nuclei; migration not judged	-0.1	1954	inactive
5	POLR2J	1	-2.72	migration z below -2; enough cells	0.28	5091	active
6	ST6GALNAC5	1	-0.24	migration z between -2 and 2; enough cells	0.76	6562	inactive
7	HSPA5	1	-2.29	migration z below -2; enough cells	0.36	5943	active
8	LRFN3	1	-1.94	migration z between -2 and 2; enough cells	0.38	4954	inactive
9	GYG2	1	0	migration z between -2 and 2; enough cells	0.8	6256	inactive
10	THOC1	1	-0.48	migration z between -2 and 2; enough cells	0.76	7359	inactive
11	SLC9A2	1	0.68	migration z between -2 and 2; enough cells	0.94	5324	inactive
12	TEX9	1	-0.37	migration z between -2 and 2; enough cells	0.8	4576	inactive
13	SEMA6C	1	-0.27	migration z between -2 and 2; enough cells	0.82	5496	inactive
14	AXDND1	1	0.17	migration z between -2 and 2; enough cells	0.94	6846	inactive
15	FIP1L1	1	1.08	migration z between -2 and 2; enough cells	1.17	5364	inactive
16	OXCT1	1	0.99	migration z between -2 and 2; enough cells	1	6628	inactive
17	HSPA1B	1	0.96	migration z between -2 and 2; enough cells	0.99	5964	inactive
18	OSTCP1	1	-0.02	migration z between -2 and 2; enough cells	0.88	5652	inactive
19	IGFL2	1	0.32	migration z between -2 and 2; enough cells	0.97	5606	inactive
20	CLDN14	1	1.01	migration z between -2 and 2; enough cells	1.15	5498	inactive
21	CDKN2B	1	0.86	migration z between -2 and 2; enough cells	0.97	6524	inactive
22	ZNF25	1	-0.01	migration z between -2 and 2; enough cells	0.88	6302	inactive
23	SLC2A2	1	-1.22	migration z between -2 and 2; enough cells	0.57	4710	inactive
24	SASS6	1	0	migration z between -2 and 2; enough cells	0.88	5337	inactive
25	ARSF	1	0.24	migration z between -2 and 2; enough cells	0.85	6000	inactive
26	RBM6	1	-0.77	migration z between -2 and 2; enough cells	0.68	4152	inactive
27	TGFA	1	-0.12	migration z between -2 and 2; enough cells	0.85	6066	inactive
28	APPL1	1	-2.44	migration z below -2; enough cells	0.25	5604	active
29	MSH6	1	-1.1	migration z between -2 and 2; enough cells	0.6	6852	inactive
30	SOX14	1	1.19	migration z between -2 and 2; enough cells	1.19	7054	inactive
31	CLEC4M	1	1.12	migration z between -2 and 2; enough cells	1.18	5668	inactive
32	POTEB3	1	2.39	migration z above 2; enough cells	1.51	4998	active
33	ADAMTS6	1	-0.47	migration z between -2 and 2; enough cells	0.71	5500	inactive
34	NECAB1	1	2.25	migration z above 2; enough cells	1.47	6512	active
35	GUK1	1	-1.01	migration z between -2 and 2; enough cells	0.61	4636	inactive
36	APPL2	1	0.05	migration z between -2 and 2; enough cells	0.9	4420	inactive
37	PRKCI	1	-0.68	migration z between -2 and 2; enough cells	0.68	4439	inactive
38	KEL	1	1.06	migration z between -2 and 2; enough cells	1.01	6022	inactive
39	CXCL10	1	0.88	migration z between -2 and 2; enough cells	1.12	5449	inactive
40	CPB2	1	-0.21	migration z between -2 and 2; enough cells	0.76	6244	inactive
41	GARNL3	1	-2.05	migration z below -2; enough cells	0.35	3574	active
42	OR10AD1	1	-0.64	migration z between -2 and 2; enough cells	0.72	5404	inactive
43	TDO2	1	0.7	migration z between -2 and 2; enough cells	0.94	5532	inactive
44	BPGM	1	-1.17	migration z between -2 and 2; enough cells	0.58	5278	inactive
45	MRPL30	1	-0.03	migration z between -2 and 2; enough cells	0.88	5098	inactive
46	PADI3	1	0.7	migration z between -2 and 2; enough cells	0.94	5446	inactive
47	SERAC1	1	0.87	migration z between -2 and 2; enough cells	1.12	6340	inactive
48	WBP4	1	-1.48	migration z between -2 and 2; enough cells	0.5	5506	inactive
49	RDX	1	-0.48	migration z between -2 and 2; enough cells	0.76	6167	inactive
50	HOXA4	1	-0.91	migration z between -2 and 2; enough cells	0.63	6289	inactive
51	CCDC27	1	0.39	migration z between -2 and 2; enough cells	0.98	5210	inactive
52	METTL14	1	1.81	migration z between -2 and 2; enough cells	1.35	4818	inactive
53	ARHGAP35	1	1.22	migration z between -2 and 2; enough cells	1.04	5887	inactive
54	NEFH	1	0.2	migration z between -2 and 2; enough cells	0.94	5576	inactive
55	MTFR1L	1	0.82	migration z between -2 and 2; enough cells	1.09	5722	inactive
56	SYMPK	1	-0.58	migration z between -2 and 2; enough cells	0.74	5806	inactive
57	TRNAU1AP	1	0.66	migration z between -2 and 2; enough cells	1.06	6841	inactive

Reagents listed above with an active call, once more:
Target gene	reagent no.	migration robust z-score	migration class with cell-count check	migration relative to mock	nuclei per well, duplicate mean	Call
POLR2J	1	-2.72	migration z below -2; enough cells	0.28	5091	active
HSPA5	1	-2.29	migration z below -2; enough cells	0.36	5943	active
APPL1	1	-2.44	migration z below -2; enough cells	0.25	5604	active
POTEB3	1	2.39	migration z above 2; enough cells	1.51	4998	active
NECAB1	1	2.25	migration z above 2; enough cells	1.47	6512	active
GARNL3	1	-2.05	migration z below -2; enough cells	0.35	3574	active
